Some peptides are written in HELM: one residue between dots, names in brackets for other building blocks, links after the first $.
Test: peptide made by a vendor (Fmoc solid-phase peptide synthesis)
Conditions: whole synthesis

Question: Which “final HPLC purity” value does the source give for “PEPTIDE1{K.W.K.S.F.I.K.K.L.T.K.K.F.L.H.S.A.K.K.F.[am]}$$$$V2.0” here?
Answer: >90%

Reference: PMC10126264 (Frontiers in Cellular and Infection Microbiology, 2023)
